Laboratory results published in the supplement of paper PMC7125110.
± gives the standard error. Many of these values have a large error.

B1: glmS ribozyme (parent)
chain: AUAAAAGCGCCAGAACUACAGAAAUGUAGUUGACGAGGAGGAGGUUUAUCGAAUUUUCGGCGGAUGCCUCCAAA

Variants of: B1
Test: self-cleavage kobs at 640 uM GlcN6P; higher = faster cleavage; RNA array
Conditions: with glucosamine-6-phosphate
In short: (§1)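 Barcoded ribozyme variants, transcribed in situ by E. coli RNA polymerase on sequenced MiSeq chips, were followed via a hybridised Cy3 probe at 37 °C. Glucosamine-6-phosphate ranged from 40 μM to 10 mM in HEPES/KCl/Mg(OAc)2 buffer. kobs came from decay fits to per-tile medians, and kcat and KM from weighted Michaelis–Menten fits.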

Variant	self-cleavage kobs at 640 uM GlcN6P [s⁻¹]
G32A A53U U56A C71U	1.27e-05 ± 8.5e-06
G32U A53C U55A	1.96e-05 ± 1.3e-05
A33G C34U C68U	2.88e-05 ± 2.2e-05
A33G G59U C68A C71A	2.55e-05 ± 2.4e-05
A33G G62U U69G	2.98e-05 ± 2.4e-05
A33G U69A	0.000329 ± 0.0003
A33U C71A	1.89e-05 ± 1.2e-05
A33U G59A C71A	4.68e-05 ± 2.6e-05
C34G C67G	0.000674 ± 0.00055
C34G C68G	3.97e-05 ± 2.3e-05
C34U C50G C67A	2.93e-05 ± 2.3e-05
G35U U55G C67G	0.00178 ± 0.00094
A36U A53U C67U C68A	0.000101 ± 5.2e-05
A36U C68A	0.000548 ± 0.00028
G37A A53U G66U	3.33e-05 ± 1.7e-05
G37C C50G U54G G63U A64U	4.83e-05 ± 3.4e-05
G37C U47G G60C U65G	5.14e-05 ± 2.7e-05
G37U A39G C50G	3.83e-05 ± 2.8e-05
G37U C68G	2.64e-05 ± 1.5e-05
G38A C67A U69A	2.49e-05 ± 2e-05
A39C G44A	1.55e-05 ± 1.5e-05
G40U A52U	2.92e-05 ± 1.6e-05
G41C A42G C70A	4.49e-05 ± 2.7e-05

Variant	self-cleavage kobs at 640 uM GlcN6P [s⁻¹]
A42G A64U	3.24e-05 ± 1.7e-05
A42U C71G	2.13e-05 ± 2.1e-05
G44C U47A	3.32e-05 ± 1.9e-05
G44U C71U	1.26e-05 ± 9.2e-06
U45A U54G C68G	4.74e-05 ± 2.9e-05
U46G C61G C67A	5.57e-05 ± 3.1e-05
A48G C58U G59U C61G C67U	6.08e-05 ± 3.2e-05
A48U U69G	4.36e-05 ± 2.3e-05
U49G C61A	1.72e-05 ± 1.4e-05
C50A A53U C67U C68G	3.99e-05 ± 3.3e-05
C50G U55C	2.14e-05 ± 1.8e-05
C50U G66U C67G	2.42e-05 ± 2.1e-05
G51A C68G	0.000252 ± 0.00019
G51A C70G	3.54e-05 ± 2e-05
G51U A53U C67U	0.00014 ± 8.3e-05
A52C U54C	2.04e-05 ± 1.9e-05
A52G C68A	2.84e-05 ± 1.6e-05
A52G C68G U69C	6.26e-05 ± 3.3e-05
A52G G66A C68U C71G	4.02e-05 ± 2.2e-05
A52U C67U C68U	4.45e-05 ± 3.8e-05
A52U C68A C70U	3.27e-05 ± 2.2e-05
A52U U55C A64G	3.14e-05 ± 1.7e-05
U54A C61A G63C C67G	4.83e-05 ± 2.6e-05

Variant	self-cleavage kobs at 640 uM GlcN6P [s⁻¹]
U54C C58G C61G C68G U69G C71G	3.94e-05 ± 2.4e-05
U55C G59A	2.25e-05 ± 1.7e-05
U55G C58U C70U	3.43e-05 ± 2.2e-05
U56C U57G	2.5e-05 ± 2.2e-05
U56G C58A C71A	2.66e-05 ± 2e-05
U56G C58U	1.61e-05 ± 9.6e-06
U57C C70A	3e-05 ± 1.7e-05
U57C G66A	1.86e-05 ± 1.6e-05
U57G C67U	2.72e-05 ± 1.8e-05
C58A C68G C71A	5.04e-05 ± 2.6e-05
C58G C71A	0.00112 ± 0.00067
C58G G66C C67G C70U	2.68e-05 ± 2.3e-05
C58U C67A	2.32e-05 ± 1.6e-05
C58U C68U	2.02e-05 ± 1.2e-05
G59A C68G	1.71e-05 ± 1.6e-05
G59A U69G	2.58e-05 ± 1.3e-05
G59U C67U C68U U69C	4.48e-05 ± 2.3e-05
C61A C70G	1.69e-05 ± 1.5e-05
G62A U69A	2.77e-05 ± 1.7e-05
G63A C68A	1.79e-05 ± 1.8e-05
A64G C68U	1.79e-05 ± 1.4e-05
A64G U69G C71A	3.78e-05 ± 3.1e-05

For reference, some entries already given.
Variant	self-cleavage kobs at 640 uM GlcN6P [s⁻¹]
A52U U55C A64G	3.14e-05 ± 1.7e-05
U54A C61A G63C C67G	4.83e-05 ± 2.6e-05
U54C C58G C61G C68G U69G C71G	3.94e-05 ± 2.4e-05
U55C G59A	2.25e-05 ± 1.7e-05
U55G C58U C70U	3.43e-05 ± 2.2e-05
U56C U57G	2.5e-05 ± 2.2e-05
U56G C58A C71A	2.66e-05 ± 2e-05
U56G C58U	1.61e-05 ± 9.6e-06
U57C C70A	3e-05 ± 1.7e-05
U57C G66A	1.86e-05 ± 1.6e-05
U57G C67U	2.72e-05 ± 1.8e-05
C58A C68G C71A	5.04e-05 ± 2.6e-05
C58G C71A	0.00112 ± 0.00067
C58G G66C C67G C70U	2.68e-05 ± 2.3e-05
C58U C67A	2.32e-05 ± 1.6e-05
C58U C68U	2.02e-05 ± 1.2e-05
G59A C68G	1.71e-05 ± 1.6e-05
G59A U69G	2.58e-05 ± 1.3e-05
G59U C67U C68U U69C	4.48e-05 ± 2.3e-05
C61A C70G	1.69e-05 ± 1.5e-05
G62A U69A	2.77e-05 ± 1.7e-05
G63A C68A	1.79e-05 ± 1.8e-05

Variants of: B1
Test: self-cleavage kobs at 160 uM GlcN6P; higher = faster cleavage; RNA array
Conditions: with glucosamine-6-phosphate
In short: as §1

Variant	self-cleavage kobs at 160 uM GlcN6P [s⁻¹]
A33G G59U C68A C71A	2.48e-05 ± 2.3e-05
A33G G62U U69G	2.16e-05 ± 1.5e-05
C34G C68G	2.28e-05 ± 2.1e-05
G37U C68G	1.72e-05 ± 1.2e-05
A48U U69G	2.31e-05 ± 2.1e-05
C50G U55C	2.91e-05 ± 2.5e-05
G51A C68G	2.81e-05 ± 1.5e-05
G51A C70G	3.47e-05 ± 2e-05
G59A C68G	1.62e-05 ± 1.5e-05

Variants of: B1
Test: self-cleavage kobs at 2500 uM GlcN6P; higher = faster cleavage; RNA array
Conditions: with glucosamine-6-phosphate
In short: as §1

Variant	self-cleavage kobs at 2500 uM GlcN6P [s⁻¹]
A33G U69A	2.27e-05 ± 2.3e-05
G37U C68G	2.08e-05 ± 1.5e-05
G51A C68G	3.6e-05 ± 1.8e-05
G51A C70G	3.64e-05 ± 2.3e-05
A52C U54C	2.88e-05 ± 2e-05
A52G C68G U69C	0.000126 ± 6.7e-05
A52U C67U C68U	3.06e-05 ± 2.2e-05
U54A C61A G63C C67G	6.71e-05 ± 4.1e-05
C58U C67A	1.87e-05 ± 1.2e-05
G59A C68G	1.72e-05 ± 1.4e-05
G59A U69G	2.7e-05 ± 1.6e-05
C61A C70G	1.88e-05 ± 1.7e-05
G62A U69A	3.99e-05 ± 2.3e-05
G63A C68A	2.61e-05 ± 2.2e-05

Variants of: B1
Test: self-cleavage kobs at 10000 uM GlcN6P; higher = faster cleavage; RNA array
Conditions: with glucosamine-6-phosphate
In short: as §1

Variant	self-cleavage kobs at 10000 uM GlcN6P [s⁻¹]
G37C C50G U54G G63U A64U	3.82e-05 ± 2e-05
C50G U55C	1.96e-05 ± 1.5e-05
U56G C58A C71A	3.2e-05 ± 1.8e-05
G59A U69G	1.32e-05 ± 9.9e-06
